Reference: PubChem BioAssay AID602196 (INSERM, 2012)

Screen: 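Knock-downs that protect lung cancer cells from cisplatin or sensitise them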
Cell system: human A549 lung cancer cells
Reagents: siRNA pair against human genes
Timing: 48 h transfection before cisplatin; time from cisplatin to read-out not stated
Conditions: cisplatin at a dose killing half of control-siRNA cells; exact dose and duration not given
Detection: 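Cisplatin cell death as a shift from the 50% death seen with control siRNA; siRNAs toxic or growth-blocking alone scored 0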
Scale: two-siRNA summed score (-2 to +2): higher = both siRNAs protect from cisplatin killing; -2 means both sensitise; mean protection from cisplatin (shift in death) and protection from cisplatin (shift in death), siRNA C and protection from cisplatin (shift in death), siRNA D: higher = protection from cisplatin killing
Hit rule: 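Each siRNA scores 0 if harmful alone by LDH or WST-1, otherwise +1 if it reduces and -1 if it increases cisplatin killing; a gene is active when both siRNAs agree (sum +2 or -2)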
Meaning of the calls: active = both siRNAs shift cisplatin killing the same way; inactive = no consistent shift, or siRNA harmful alone
The whole screen tested about 23,000 reagents; shown is a part drawn at random. 455 of all reagents (2%) were called active. 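Active includes both protection and sensitisation; some change values fall well beyond the stated -50 to +50 range.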 A number with no mark means an inactive call. Reagents against one gene are numbered here. Not given: the amount of reagent.

gene symbol,reagent no.,two-siRNA summed score (-2 to +2),mean protection from cisplatin (shift in death) (%),"protection from cisplatin (shift in death), siRNA C (%)","protection from cisplatin (shift in death), siRNA D (%)"
INHBA,1,0,3.4,12,-5.3
LILRP2,1,0,7,12,2
DNAJC7,1,-1,-4,-18.7,10.7
TRIP11,1,1,11.9,5.4,18.4
LOC440143,1,0,9.8,10.1,9.4
OR6T1,1,0,10.4,7.9,12.9
DHH,1,0,13.7,15.7,11.7
LOC389177,1,0,4.2,12.6,-4.3
HDHD2,1,0,-1.7,5.6,-9
GATD1,1,-1,-2.2,7.7,-12
XKR3,1,0,7.6,-3.6,18.7
VHL,1,0,2.7,-17.4,22.8
PRSS55,1,-1,-15.9,-0.8,-31
SIAE,1,0,-6.2,-3.4,-9
CPLANE2,1,0,2.9,-2.2,8
RBL1,1,-1,-16.6,-34.6,1.5
SCGB1C1,1,0,2.8,3.9,1.7
LOC442057,1,1,15.3,21.3,9.3
C1orf35,1,0,6.1,7.3,4.9
TERF1,1,0,12.8,18.2,7.5
STRA6,1,0,8.1,13.4,2.9
VSX2,1,1,17.7,18.1,17.3
UBA52,1,0,-5.2,1.1,-11.4
C2CD3,1,1,8.8,0.2,17.5
ZNF664,1,2 (active),19.1,20.3,17.9
LOC145853,1,0,19.4,-1.1,39.9
HCG27,1,0,9.3,15.6,2.9
LOC440110,1,0,-2.4,-0.4,-4.4
FZD10,1,0,2.3,2.4,2.2
EMC1,1,0,3.3,9.4,-2.8
STT3B,1,2 (active),21.2,16.6,25.8
LOC399806,1,0,10.2,18,2.3
SNW1,1,0,-14.3,-37.2,8.6
SNW1,2,1,9,-2.7,20.8
VPS13B,1,1,13.8,16.9,10.7
GSE1,1,0,-0.6,-7.6,6.4
LOC401579,1,0,4.9,5.6,4.1
EPB41L4A-DT,1,1,15.5,11.9,19.1
LOC402598,1,0,7.4,13.4,1.5
UBA2,1,-1,-5.6,0.1,-11.3
LOC345651,1,0,3.7,-0.1,7.6
ZNF295-AS1,1,0,-3.1,-10.4,4.2
ERGIC3,1,0,2.9,1.5,4.3
ZNF606,1,0,-3.5,2.1,-9
CHAT,1,-2 (active),-12.1,-10.7,-13.6
HNMT,1,0,7.7,4.9,10.5
FLJ13373,1,1,10.3,-1.4,22.1
CD24,1,0,10.1,9.6,10.7
PPIAP35,1,1,10.2,20.4,0
MGAT4B,1,0,0.9,1.1,0.8
LOC402720,1,0,1.8,-1.7,5.4
CLC,1,-1,-2.1,7.1,-11.4
CREG1,1,0,-0.7,-3.2,1.9
LOC150356,1,0,-3.9,3.8,-11.5
LOC441526,1,0,4.1,9,-0.8
LOC400500,1,0,5.8,7.1,4.5
PCSK9,1,0,5.6,-0.7,11.9

Reprinted from the entries so far (9 entries):
gene symbol,reagent no.,two-siRNA summed score (-2 to +2),mean protection from cisplatin (shift in death) (%),"protection from cisplatin (shift in death), siRNA C (%)","protection from cisplatin (shift in death), siRNA D (%)"
SNW1,2,1,9,-2.7,20.8
VPS13B,1,1,13.8,16.9,10.7
GSE1,1,0,-0.6,-7.6,6.4
LOC401579,1,0,4.9,5.6,4.1
EPB41L4A-DT,1,1,15.5,11.9,19.1
LOC402598,1,0,7.4,13.4,1.5
UBA2,1,-1,-5.6,0.1,-11.3
LOC345651,1,0,3.7,-0.1,7.6
ZNF295-AS1,1,0,-3.1,-10.4,4.2
